PubChem BioAssay AID652243 | Drosophila RNAi Screening Center, 2013
In all, the deposit lists about 24,000 reagents; this is an unselected part of those that have a named target and a result. Of all reagents, 246 (1%) got an active call. 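Plates not normalised; calls are printed but the firefly/Renilla ratio behind them is not deposited; fold cut for lowering reported inconsistently.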 Raw values vary from plate to plate and are shown uncorrected. The record does not give: the amount of reagent.

Screen: 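Knock-downs that decrease or increase androgen receptor reporter signal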 (primary screen)
System: Drosophila S2R+ cells
Reagents: long dsRNA against Drosophila genes
Timing: 72 h (48 h, then 24 h hormone)
Challenge: synthetic androgen R1881 at 10 nM for 24 h
Measured: 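Firefly light from an androgen-responsive reporter and Renilla control light per well, raw and unnormalised, for each of two replicates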
Direction: firefly reporter light: higher = more light from androgen-responsive reporter; Renilla control light: higher = more constitutive control signal (cell number, transfection)
Call rule: 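Hit when the log firefly-to-Renilla ratio dropped or increased by a fixed fold versus the mean of GFP or LacZ controls across duplicate plates; lowering cut given as 1.5 and as 3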
Meaning of the calls: active = hit: reporter lowered or raised; inactive = no hit

Target gene | amplicon | firefly reporter light, replicate 1 | firefly reporter light, replicate 2 | Renilla control light, replicate 1 | Renilla control light, replicate 2 | Call
bap (GeneID 42537) | DRSC16908 | 2.52e5 | 2.87e5 | 2.91e6 | 3.19e6 | inactive
bap (GeneID 42537) | DRSC27201 | 2.79e5 | 3.81e5 | 5.63e5 | 5.46e5 | inactive
lov (GeneID 38007) | DRSC04665 | 7.45e5 | 7.53e5 | 1.82e6 | 1.78e6 | inactive
lov (GeneID 38007) | DRSC27208 | 3.51e5 | 1.92e5 | 6.31e5 | 3.15e5 | inactive
eIF4E3 (GeneID 38923) | DRSC10952 | 1.09e6 | 8.94e5 | 1.61e6 | 1.93e6 | inactive
CanA-14F (GeneID 8674098) | DRSC23296 | 9.59e5 | 8.17e5 | 1.23e6 | 9.56e5 | inactive
wus (GeneID 32683) | DRSC20278 | 65326 | 81382 | 5.70e5 | 4.94e5 | inactive
dyl (GeneID 38531) | DRSC08466 | 8.69e5 | 9.08e5 | 1.20e6 | 1.42e6 | inactive
dyl (GeneID 38531) | DRSC08467 | 2.28e5 | 1.93e5 | 2.30e6 | 2.52e6 | inactive
dyl (GeneID 38531) | DRSC24188 | 5.32e5 | 3.03e5 | 6.04e5 | 5.76e5 | inactive
CG6951 (GeneID 40222) | DRSC10755 | 1.66e5 | 1.55e5 | 2.15e6 | 2.11e6 | inactive
moon (GeneID 32176) | DRSC19497 | 3.14e5 | 3.32e5 | 2.73e6 | 2.71e6 | inactive
mRpL22 (GeneID 32662) | DRSC19915 | 2.30e5 | 2.69e5 | 2.81e6 | 1.99e6 | inactive
mRpL22 (GeneID 32662) | DRSC26399 | 1.85e5 | 1.19e5 | 3.20e5 | 2.31e5 | inactive
Srx (GeneID 32768) | DRSC20005 | 5.78e5 | 4.66e5 | 3.67e6 | 3.20e6 | inactive
CG30089 (GeneID 36736) | DRSC06126 | 1.20e6 | 1.15e6 | 2.06e6 | 1.82e6 | inactive
CG30089 (GeneID 36736) | DRSC06267 | 1.17e5 | 1.21e5 | 2.82e6 | 2.82e6 | inactive
CG30089 (GeneID 36736) | DRSC06268 | 3.73e5 | 3.71e5 | 2.78e6 | 3.73e6 | inactive
CG6938 (GeneID 39362) | DRSC10752 | 1.38e5 | 1.08e5 | 1.51e6 | 1.37e6 | inactive
CG6938 (GeneID 39362) | DRSC28621 | 4.84e5 | 4.44e5 | 1.28e6 | 1.27e6 | inactive
CG41497 (retired record) (GeneID 5740221) | DRSC38712 | 1.03e6 | 7.85e5 | 1.92e6 | 2.45e6 | inactive
tweek (GeneID 35026) | DRSC02433 | 1.56e5 | 1.71e5 | 1.82e6 | 2.42e6 | inactive
tweek (GeneID 35026) | DRSC02434 | 1.38e5 | 1.63e5 | 1.51e6 | 1.72e6 | inactive
tweek (GeneID 35026) | DRSC23133 | 8.24e5 | 8.79e5 | 3.52e5 | 3.62e5 | inactive
Cdk2 (GeneID 42453) | DRSC16921 | 1.19e5 | 77627 | 8.47e5 | 8.93e5 | inactive
Cdk2 (GeneID 42453) | DRSC36625 | – | – | – | – | active
CG18135 (GeneID 40073) | DRSC10295 | 62822 | 68979 | 6.10e5 | 4.44e5 | inactive
CG1371 (GeneID 36053) | DRSC06409 | 7.82e5 | 6.20e5 | 1.15e6 | 1.27e6 | inactive
Tnpo-SR (GeneID 33465) | DRSC00546 | 7.87e5 | 9.82e5 | 2.21e6 | 1.97e6 | inactive
CG14667 (GeneID 40643) | DRSC12253 | 30668 | 26757 | 1.15e6 | 1.20e6 | inactive
CG14667 (GeneID 40643) | DRSC28216 | 7.57e5 | 1.06e6 | 1.42e6 | 1.87e6 | inactive
CG10365 (GeneID 42801) | DRSC14234 | 1.90e5 | 1.49e5 | 2.78e6 | 1.79e6 | inactive
CR17567 (retired record) (GeneID 14462800) | DRSC02627 | 1.99e5 | 2.20e5 | 2.39e6 | 2.56e6 | inactive
CR17567 (retired record) (GeneID 14462800) | DRSC22537 | 1.08e6 | 8.64e5 | 3.59e5 | 2.75e5 | inactive
CR17567 (retired record) (GeneID 14462800) | DRSC24938 | 5.81e5 | 5.99e5 | 7.46e5 | 7.94e5 | inactive
CG30105 (GeneID 246459) | DRSC05668 | 1.58e5 | 2.05e5 | 3.29e5 | 4.32e5 | inactive
CG30105 (GeneID 246459) | DRSC29034 | 5.36e5 | 7.08e5 | 1.34e6 | 1.18e6 | inactive
Pal1 (GeneID 36033) | DRSC06106 | 1.35e6 | 8.88e5 | 1.80e6 | 1.19e6 | inactive
CG9500 (GeneID 33888) | DRSC03237 | 1.02e5 | 1.77e5 | 1.62e6 | 1.42e6 | inactive
Phm (GeneID 37823) | DRSC04639 | 8.08e5 | 7.19e5 | 1.69e6 | 2.20e6 | inactive

Records listed above called active:
Target gene | amplicon | firefly reporter light, replicate 1 | firefly reporter light, replicate 2 | Renilla control light, replicate 1 | Renilla control light, replicate 2 | Call
Cdk2 (GeneID 42453) | DRSC36625 | – | – | – | – | active
